Test results: US20210228680A1
No constants are given. Whether binding was seen depends on the method and setting. In cells and extracts the contact can be indirect. Some results given as binding are weak or reduced against the parent protein; the word gives no strength.

Amino acid sequences for entries named in this document (tags omitted).
UniProt P29351: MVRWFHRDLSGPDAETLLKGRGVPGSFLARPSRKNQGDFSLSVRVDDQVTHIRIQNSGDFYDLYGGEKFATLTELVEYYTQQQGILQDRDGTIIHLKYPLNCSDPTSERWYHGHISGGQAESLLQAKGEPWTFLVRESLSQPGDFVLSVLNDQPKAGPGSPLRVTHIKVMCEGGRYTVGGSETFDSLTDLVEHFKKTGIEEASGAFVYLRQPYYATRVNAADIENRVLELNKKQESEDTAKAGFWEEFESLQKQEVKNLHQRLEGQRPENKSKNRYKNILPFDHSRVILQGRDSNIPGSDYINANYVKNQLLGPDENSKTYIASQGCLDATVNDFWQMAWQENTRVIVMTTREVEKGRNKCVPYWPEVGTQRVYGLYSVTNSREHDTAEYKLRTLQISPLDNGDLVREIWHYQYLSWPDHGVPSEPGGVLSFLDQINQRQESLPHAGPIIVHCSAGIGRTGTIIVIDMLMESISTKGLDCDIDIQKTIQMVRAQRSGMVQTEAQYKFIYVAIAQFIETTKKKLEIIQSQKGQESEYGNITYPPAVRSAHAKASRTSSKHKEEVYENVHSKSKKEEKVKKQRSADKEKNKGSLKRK

Biological target: SHP-1 (mouse) (UniProt P29351)
Assay: co-immunoprecipitation: Siglec G precipitated from CD24Fc-stimulated CD24-/- spleen cells, probed with anti-SHP-1

- binding: binds
B1: Siglec G (mouse homologue of human Siglec 10) (receptor, UniProt Q80ZE3 18-688, looked up)
chain: QMESYFLQVQRIVKAQEGLCIFVPCSFSSPEGKWLNRSPLYGYWFKGIRKPSLSFPVATNNKDKVLEWEARGRFQLLGDISKKNCSLLIKDVQWGDSTNYFFRMERGFERFSFKEEFRLQVEALTQKPDIFIPEVLEPGEPVTVVCLFSWTFNQCPAPSFSWMGDAVSFQESRPHTSNYSVLSFIPGLQHHDTELTCQLDFSRMSTQRTVRLRVAYAPRSLAISIFHDNVSVPDLHENPSHLEVQQGQSLRLLCTADSQPPATLSWVLEDQVLSWSSPVGSRTLALELPWVKAGDSGHYTCQAENRLGSQQHTLDLSVLYPPQDLRVTVSQANRTVLEILRNAISLPVLEGQSLCLVCVTYSNPPANVSWAWVTQTLIPIQSSEPGVLELPLVQREHEGEFTCAAQNPLGAQRISLSLSVHYPPQMSSPSCSWEAKGLHCNCSSRAWPAPSLRWRLGEGLLEGNSSNASFTVTFSSLGPWVNSSLSLLQELGPSLWLSCESWNTHGAQTTSVLLLPDKDSATAFSKGAVLGFGITALLALCLIVVIVKTLQKKGTQEEPSRPKLSRGSTILDYINVVPKTRSLARNWKAEPDAPSRSSPLDTHFPKPKKKQKDPHFTYPGCPDPTSSSQVPVSENNPEELHYAALNFSRLRLQETQDPQDTYSDYTEVRVH
